This assay concerns the target PbRpt3-mCherry (endogenous PbRpt3 tagged with mCherry at the C-terminus in P. berghei) (Plasmodium berghei). As to the kind of experiment: affinity purification with mass spectrometry; RFP-Trap beads on soluble extracts of mixed trophozoite-schizont PbRpt3-mCherry parasites, overnight at 4 °C, 20 mM Tris, 150 mM NaCl, 0.5% Triton X-100, pH 7.5; parental wild-type line as control; four biological replicates; DIA nanoLC-MS/MS.

The chains behind the UniProt entries cited, without tags or fusion partners. Where a name states a change or a piece, a line headed by the entry shows the natural chain unless it says otherwise.
UniProt A0A509AH92: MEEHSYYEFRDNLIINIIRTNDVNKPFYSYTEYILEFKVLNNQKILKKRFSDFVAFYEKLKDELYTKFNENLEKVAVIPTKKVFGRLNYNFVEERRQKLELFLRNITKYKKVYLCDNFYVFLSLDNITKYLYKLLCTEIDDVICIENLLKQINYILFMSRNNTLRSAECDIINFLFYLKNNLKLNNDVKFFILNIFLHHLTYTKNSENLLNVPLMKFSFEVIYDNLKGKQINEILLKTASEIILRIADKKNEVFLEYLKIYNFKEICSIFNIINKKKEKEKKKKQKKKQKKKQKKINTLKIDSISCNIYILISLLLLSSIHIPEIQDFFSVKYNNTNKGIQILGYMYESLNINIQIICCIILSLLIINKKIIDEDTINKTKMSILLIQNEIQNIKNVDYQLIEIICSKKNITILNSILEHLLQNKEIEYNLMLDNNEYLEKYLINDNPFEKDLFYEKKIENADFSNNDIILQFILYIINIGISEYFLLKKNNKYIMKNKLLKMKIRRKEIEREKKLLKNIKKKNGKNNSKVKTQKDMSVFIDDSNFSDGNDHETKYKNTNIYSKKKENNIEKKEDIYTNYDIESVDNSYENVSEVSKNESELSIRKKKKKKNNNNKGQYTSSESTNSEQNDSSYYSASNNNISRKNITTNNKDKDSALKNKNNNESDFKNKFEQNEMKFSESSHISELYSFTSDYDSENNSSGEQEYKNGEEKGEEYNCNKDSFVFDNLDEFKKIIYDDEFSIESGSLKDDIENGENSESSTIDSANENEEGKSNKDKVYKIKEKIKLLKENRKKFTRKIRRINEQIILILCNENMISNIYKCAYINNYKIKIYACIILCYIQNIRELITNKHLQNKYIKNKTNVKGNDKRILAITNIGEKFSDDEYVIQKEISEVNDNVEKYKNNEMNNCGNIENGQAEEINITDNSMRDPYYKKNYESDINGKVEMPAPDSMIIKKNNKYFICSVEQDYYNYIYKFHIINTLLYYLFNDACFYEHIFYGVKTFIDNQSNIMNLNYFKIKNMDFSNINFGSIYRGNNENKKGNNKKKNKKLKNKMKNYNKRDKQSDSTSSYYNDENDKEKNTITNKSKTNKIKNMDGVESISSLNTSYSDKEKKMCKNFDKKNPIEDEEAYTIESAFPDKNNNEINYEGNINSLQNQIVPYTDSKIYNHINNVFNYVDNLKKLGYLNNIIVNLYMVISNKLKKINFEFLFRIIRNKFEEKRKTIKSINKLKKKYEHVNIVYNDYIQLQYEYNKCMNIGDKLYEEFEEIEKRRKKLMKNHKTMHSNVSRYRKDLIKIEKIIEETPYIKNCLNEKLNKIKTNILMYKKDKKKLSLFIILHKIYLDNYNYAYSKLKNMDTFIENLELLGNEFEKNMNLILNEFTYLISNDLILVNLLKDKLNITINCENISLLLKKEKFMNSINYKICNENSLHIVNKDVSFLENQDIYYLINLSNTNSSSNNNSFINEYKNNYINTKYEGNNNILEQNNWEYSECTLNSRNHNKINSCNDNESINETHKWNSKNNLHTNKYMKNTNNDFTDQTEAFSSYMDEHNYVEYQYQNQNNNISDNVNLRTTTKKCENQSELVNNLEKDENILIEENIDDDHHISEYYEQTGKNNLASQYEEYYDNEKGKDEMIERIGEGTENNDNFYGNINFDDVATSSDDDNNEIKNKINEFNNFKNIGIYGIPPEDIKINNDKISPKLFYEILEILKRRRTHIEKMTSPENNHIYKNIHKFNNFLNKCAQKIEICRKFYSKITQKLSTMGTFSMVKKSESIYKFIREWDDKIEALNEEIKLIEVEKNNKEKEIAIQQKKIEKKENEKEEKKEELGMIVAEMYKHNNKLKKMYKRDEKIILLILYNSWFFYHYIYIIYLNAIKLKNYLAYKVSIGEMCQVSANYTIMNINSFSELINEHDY
UniProt A0A509AJV2: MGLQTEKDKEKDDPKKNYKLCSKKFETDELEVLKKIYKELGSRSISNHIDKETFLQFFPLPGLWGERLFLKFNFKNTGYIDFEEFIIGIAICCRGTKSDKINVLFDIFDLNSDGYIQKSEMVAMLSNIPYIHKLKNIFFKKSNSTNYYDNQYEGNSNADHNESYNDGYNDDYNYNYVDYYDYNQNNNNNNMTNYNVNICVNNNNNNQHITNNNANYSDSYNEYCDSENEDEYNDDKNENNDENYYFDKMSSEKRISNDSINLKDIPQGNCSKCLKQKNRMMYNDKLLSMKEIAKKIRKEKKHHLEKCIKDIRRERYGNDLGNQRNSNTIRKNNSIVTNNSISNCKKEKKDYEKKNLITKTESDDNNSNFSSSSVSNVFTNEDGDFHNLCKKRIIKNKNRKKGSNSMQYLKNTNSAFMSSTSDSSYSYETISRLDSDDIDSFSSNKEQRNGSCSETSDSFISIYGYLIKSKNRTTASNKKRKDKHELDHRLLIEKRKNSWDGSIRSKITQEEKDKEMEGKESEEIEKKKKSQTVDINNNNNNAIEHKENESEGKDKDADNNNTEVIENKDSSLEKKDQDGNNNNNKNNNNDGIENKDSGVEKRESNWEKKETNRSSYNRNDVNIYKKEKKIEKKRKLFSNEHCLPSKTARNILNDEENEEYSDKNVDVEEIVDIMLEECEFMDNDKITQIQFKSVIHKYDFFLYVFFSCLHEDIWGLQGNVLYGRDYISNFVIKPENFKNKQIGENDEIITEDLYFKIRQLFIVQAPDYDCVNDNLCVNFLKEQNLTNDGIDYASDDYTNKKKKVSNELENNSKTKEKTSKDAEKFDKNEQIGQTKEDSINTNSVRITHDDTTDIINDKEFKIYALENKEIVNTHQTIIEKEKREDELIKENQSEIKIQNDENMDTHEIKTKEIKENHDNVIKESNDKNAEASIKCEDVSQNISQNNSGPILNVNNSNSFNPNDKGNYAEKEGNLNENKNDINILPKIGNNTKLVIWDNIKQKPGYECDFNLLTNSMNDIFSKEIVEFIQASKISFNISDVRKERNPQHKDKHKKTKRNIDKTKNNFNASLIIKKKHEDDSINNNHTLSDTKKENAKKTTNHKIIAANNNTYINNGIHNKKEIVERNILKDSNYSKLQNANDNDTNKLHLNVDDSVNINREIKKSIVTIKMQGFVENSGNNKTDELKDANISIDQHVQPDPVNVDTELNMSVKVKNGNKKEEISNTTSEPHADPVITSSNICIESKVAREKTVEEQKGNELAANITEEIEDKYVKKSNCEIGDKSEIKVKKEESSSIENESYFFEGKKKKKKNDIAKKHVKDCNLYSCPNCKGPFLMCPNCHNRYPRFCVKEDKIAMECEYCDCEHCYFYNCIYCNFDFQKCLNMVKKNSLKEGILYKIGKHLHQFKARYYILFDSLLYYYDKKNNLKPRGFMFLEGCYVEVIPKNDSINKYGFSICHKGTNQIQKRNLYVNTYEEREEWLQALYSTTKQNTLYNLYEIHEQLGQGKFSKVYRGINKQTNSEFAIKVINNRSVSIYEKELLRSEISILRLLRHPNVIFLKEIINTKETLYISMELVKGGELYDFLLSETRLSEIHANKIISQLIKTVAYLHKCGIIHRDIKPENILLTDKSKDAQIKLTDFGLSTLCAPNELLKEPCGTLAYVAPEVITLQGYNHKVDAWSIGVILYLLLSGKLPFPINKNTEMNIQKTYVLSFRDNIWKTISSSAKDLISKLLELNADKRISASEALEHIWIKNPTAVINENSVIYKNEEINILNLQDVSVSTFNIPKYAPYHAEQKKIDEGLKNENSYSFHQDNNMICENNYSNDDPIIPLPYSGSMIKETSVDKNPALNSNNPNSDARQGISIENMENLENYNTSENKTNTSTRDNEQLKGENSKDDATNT
UniProt A0A509ASP7: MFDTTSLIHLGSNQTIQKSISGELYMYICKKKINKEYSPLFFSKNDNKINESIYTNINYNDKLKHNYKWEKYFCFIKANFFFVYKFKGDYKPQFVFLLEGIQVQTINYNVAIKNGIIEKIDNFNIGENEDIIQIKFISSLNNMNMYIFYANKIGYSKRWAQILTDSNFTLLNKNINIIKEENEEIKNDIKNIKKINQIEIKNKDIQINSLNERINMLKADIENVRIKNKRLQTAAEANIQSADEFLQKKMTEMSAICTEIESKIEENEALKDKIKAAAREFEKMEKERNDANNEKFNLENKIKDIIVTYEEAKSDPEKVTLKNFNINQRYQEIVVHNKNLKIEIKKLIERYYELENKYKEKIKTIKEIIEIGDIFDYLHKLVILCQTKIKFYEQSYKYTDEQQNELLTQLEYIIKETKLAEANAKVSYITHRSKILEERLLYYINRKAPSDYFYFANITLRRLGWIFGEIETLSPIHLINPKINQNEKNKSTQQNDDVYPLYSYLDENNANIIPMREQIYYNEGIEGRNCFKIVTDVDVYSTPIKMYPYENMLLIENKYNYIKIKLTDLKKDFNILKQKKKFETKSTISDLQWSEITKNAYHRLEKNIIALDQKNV
UniProt A0A509ATV4: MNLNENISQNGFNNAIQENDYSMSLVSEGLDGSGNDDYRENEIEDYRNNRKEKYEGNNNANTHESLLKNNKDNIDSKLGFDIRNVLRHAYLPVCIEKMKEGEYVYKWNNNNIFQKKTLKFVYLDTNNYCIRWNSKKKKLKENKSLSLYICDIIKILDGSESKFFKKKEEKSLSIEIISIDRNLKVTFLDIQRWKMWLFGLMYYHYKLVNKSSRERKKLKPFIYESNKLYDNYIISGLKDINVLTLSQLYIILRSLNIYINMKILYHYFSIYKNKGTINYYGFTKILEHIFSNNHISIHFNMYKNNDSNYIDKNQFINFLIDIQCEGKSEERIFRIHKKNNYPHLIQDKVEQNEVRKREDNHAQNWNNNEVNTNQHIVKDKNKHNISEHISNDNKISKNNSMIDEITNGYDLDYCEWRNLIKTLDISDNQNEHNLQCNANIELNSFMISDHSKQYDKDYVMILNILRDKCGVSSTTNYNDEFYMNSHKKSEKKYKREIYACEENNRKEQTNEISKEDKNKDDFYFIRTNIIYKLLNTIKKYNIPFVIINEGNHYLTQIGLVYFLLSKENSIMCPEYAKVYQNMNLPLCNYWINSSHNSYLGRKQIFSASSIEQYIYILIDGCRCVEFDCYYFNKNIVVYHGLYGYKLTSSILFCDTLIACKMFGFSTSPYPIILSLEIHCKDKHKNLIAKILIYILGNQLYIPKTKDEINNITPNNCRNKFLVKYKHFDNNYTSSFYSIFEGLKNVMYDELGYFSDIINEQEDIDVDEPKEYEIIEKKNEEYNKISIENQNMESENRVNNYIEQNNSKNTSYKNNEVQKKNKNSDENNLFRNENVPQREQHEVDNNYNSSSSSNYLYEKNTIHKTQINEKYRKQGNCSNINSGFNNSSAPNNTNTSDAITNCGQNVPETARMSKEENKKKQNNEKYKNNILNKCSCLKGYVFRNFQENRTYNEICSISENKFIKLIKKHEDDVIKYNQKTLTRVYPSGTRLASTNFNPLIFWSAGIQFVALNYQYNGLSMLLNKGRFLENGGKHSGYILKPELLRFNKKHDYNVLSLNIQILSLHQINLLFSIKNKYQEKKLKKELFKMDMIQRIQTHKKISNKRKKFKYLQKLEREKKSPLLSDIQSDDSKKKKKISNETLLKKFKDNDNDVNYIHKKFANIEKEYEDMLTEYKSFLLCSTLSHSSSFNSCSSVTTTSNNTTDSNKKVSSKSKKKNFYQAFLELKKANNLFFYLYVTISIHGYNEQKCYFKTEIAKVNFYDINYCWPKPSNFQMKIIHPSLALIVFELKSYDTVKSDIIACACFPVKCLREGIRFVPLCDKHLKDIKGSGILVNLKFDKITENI

Drawing on PMC12691818, this text covers binding for five substances.

No constants are given. Whether binding was seen depends on the method and setting. In cells and extracts the contact can be indirect. Here binding means that the protein was enriched with, or labelled near, the bait; the list need not be complete.

As to “phosphoinositide-binding protein PX1 (P. berghei) (from UniProt A0A509AH92)”, the binding result is “binds”.
As for “calcium-dependent protein kinase 7 (CDPK7, P. berghei) (from UniProt A0A509AJV2) (enzyme)”, the binding result is “binds”.
The entry for “phosphoinositide-binding protein PH2 (P. berghei) (from UniProt A0A509ASP7)” is “binds”; for “double C2-like domain-containing protein (DOC2, P. berghei) (from UniProt A0A509ASV2)” it is “binds”.
The entry for “phosphoinositide-specific phospholipase C (PI-PLC, P. berghei) (from UniProt A0A509ATV4) (enzyme)” is “binds”.
